Data: patent US20190194268A1 (DONALD DANFORTH PLANT SCIENCE CENTER, published 2019)
“Also recorded” adds a separate entry of the source.

Assay: transmission electron microscopy of cross-linked protein complex
Conditions: TEM, with or without PIP, FIG. 20

B1: MtDef5FL1: Medicago truncatula protein with MtDef5 defensin peptides A and B connected by a 7-amino acid linker; SEQ ID NO:7, expressed in Pichia (protein, listed as Medicago truncatula)
chain: CQKRSTTWSGPCLNTGNCKRQCINVEHATFGACHRQGFGFACFCYKKCAPKKVEPKLCERRSKTWSGPCLISGNCKRQCINVEHATSGACHRQGIGFACFCKKKC
  formation of nanonet-like structures: Nanonet-like structures were observed only in the presence of PIP; also recorded: forms nanonet structures in presence of PIP
